Experimental data from the supplement of paper PMC4604168 (melanoma cell lines).
The other results are listed elsewhere or left out. Many values rest on one well or one pass, so single values are uncertain.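 The apoptosis fraction was the count of cleaved-PARP antibody-stained nuclei relative to all DNA-stained nuclei, imaged in 1,536-well plates. Screening doses were set so most cells survived, and baseline and induced cleaved-PARP levels vary greatly across cell lines.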

Experiments:
Experiment in all cases: cleaved PARP positive nuclei fraction relative to DMSO control; melanoma cells; higher = more apoptosis
Settings in all cases: library dose: low library concentration; 72 h
501Mel = test system: 501Mel
A101D = test system: A101D
A2058 = test system: A2058
C32 = test system: C32
CBRC008 = test system: CBRC008 (line from a melanoma biopsy)
CBRC014 = test system: CBRC014 (line from a melanoma biopsy)
CBRC016 = test system: CBRC016 (line from a melanoma biopsy)
CBRC017 = test system: CBRC017 (line from a melanoma biopsy)
COLO792 = test system: COLO792
COLO800 = test system: COLO800
COLO829 = test system: COLO829
G361 = test system: G361
IPC-298 = test system: IPC-298
IST-MEL1 = test system: IST-MEL1
LB2518-MEL = test system: LB2518-MEL
LOXIMVI = test system: LOXIMVI
A375 = test system: A375
CBRC034 = test system: CBRC034 (line from a melanoma biopsy)
MEL-HO = test system: MEL-HO
CBRC013 = test system: CBRC013 (line from a melanoma biopsy)

Compound | cleaved PARP positive nuclei fraction (501Mel) [%] | cleaved PARP positive nuclei fraction (A101D) [%] | cleaved PARP positive nuclei fraction (A2058) [%] | cleaved PARP positive nuclei fraction (C32) [%] | cleaved PARP positive nuclei fraction (CBRC008) [%] | cleaved PARP positive nuclei fraction (CBRC014) [%] | cleaved PARP positive nuclei fraction (CBRC016) [%] | cleaved PARP positive nuclei fraction (CBRC017) [%] | cleaved PARP positive nuclei fraction (COLO792) [%] | cleaved PARP positive nuclei fraction (COLO800) [%] | cleaved PARP positive nuclei fraction (COLO829) [%] | cleaved PARP positive nuclei fraction (G361) [%] | cleaved PARP positive nuclei fraction (IPC-298) [%] | cleaved PARP positive nuclei fraction (IST-MEL1) [%] | cleaved PARP positive nuclei fraction (LB2518-MEL) [%] | cleaved PARP positive nuclei fraction (LOXIMVI) [%] | cleaved PARP positive nuclei fraction (A375) [%] | cleaved PARP positive nuclei fraction (CBRC034) [%] | cleaved PARP positive nuclei fraction (MEL-HO) [%] | cleaved PARP positive nuclei fraction (CBRC013) [%]
O=c1[nH]nc(Sc2ncc([N+](=O)[O-])s2)n1-c1ccc2c(c1)OCCO2 + Cn1cc(/C=C2\C(=O)Nc3cccnc32)c2ccccc21 [GW441756] (first compound 0.2 µM, partner dose 0.4 µM) | 62 | 31.8 | 104 | 88.4 | 184 | 98.9 | 143 | 83.9 | 80 | 50.3 | 41.8 | 108 | 100 | 75.1 | 127 | 52.2 | – | – | – | –
CCCCCCCCCCCCCCCCCCOP(=O)([O-])OC1CC[N+](C)(C)CC1 [Perifosine] + CC1(C)CCC(c2ccc(Cl)cc2)=C(CN2CCN(c3ccc(C(=O)NS(=O)(=O)c4ccc(N[C@H](CCN5CCOCC5)CSc5ccccc5)c(S(=O)(=O)C(F)(F)F)c4)cc3)CC2)C1 [ABT263] (first compound 0.4 µM, partner dose 0.4 µM) | 129 | 94.2 | 342 | 865 | 397 | 802 | 534 | 571 | 342 | 171 | 62.7 | 108 | 231 | 572 | 87.4 | 197 | 2130 | 130 | 169 | –
COc1cc([C@@H]2c3cc4c(cc3[C@@H](O[C@@H]3O[C@@H]5CO[C@@H](C)O[C@H]5[C@H](O)[C@H]3O)[C@H]3COC(=O)[C@H]23)OCO4)cc(OC)c1O [etoposide] + Cn1cnc2c(F)c(Nc3ccc(Br)cc3Cl)c(C(=O)NOCCO)cc21 [selumetinib] (first compound 0.02 µM, partner dose 0.015 µM) | 2150 | 137 | 115 | 88.4 | 77.3 | 73.6 | 195 | 111 | 105 | 106 | 36.7 | 164 | – | 282 | 230 | 124 | 163 | 632 | 90 | –
COc1cc([C@@H]2c3cc4c(cc3[C@@H](O[C@@H]3O[C@@H]5CO[C@@H](C)O[C@H]5[C@H](O)[C@H]3O)[C@H]3COC(=O)[C@H]23)OCO4)cc(OC)c1O [etoposide] + Nc1cccc2c1CN(C1CCC(=O)NC1=O)C2=O [lenalidomide] (first compound 0.02 µM, partner dose 1 µM) | 52.6 | 69.4 | 141 | 89.4 | 66.4 | 93.2 | 125 | 74.3 | – | 29 | 171 | 162 | 43 | 139 | 69.9 | 68.4 | 239 | 66 | 80.6 | –
O=C(Nc1cc(C(F)(F)F)cc(C(F)(F)F)c1)c1cc(Cl)ccc1O + C[C@]1(O)C[C@@H](c2nc(-c3ccc4ccc(-c5ccccc5)nc4c3)c3c(N)nccn32)C1 [OSI906] (first compound 0.016 µM, partner dose 0.4 µM) | 127 | 67.9 | 104 | 75.7 | 180 | 116 | 293 | 128 | 87.6 | 108 | 60.6 | 143 | 142 | 142 | 289 | 115 | 317 | 121 | 142 | –
O=C(Nc1cc(C(F)(F)F)cc(C(F)(F)F)c1)c1cc(Cl)ccc1O + O=C(O)C(=O)Nc1sc2c(c1C(=O)O)CCNC2 [TCS401] (first compound 0.016 µM, partner dose 1.66667 µM) | 66.6 | 19.6 | 63.7 | 74.4 | 40.2 | 78 | 109 | 141 | 114 | 66.4 | 54.5 | 95.2 | 46.7 | 76.6 | 36.6 | 230 | – | – | – | –
CC[C@]1(O)C[C@H]2CN(CCc3c([nH]c4ccccc34)[C@@](C(=O)OC)(c3cc4c(cc3OC)N(C=O)[C@H]3[C@@](O)(C(=O)OC)[C@H](OC(C)=O)[C@]5(CC)C=CCN6CC[C@]43[C@@H]65)C2)C1 [vincristine] + CCCCCCCCc1ccc(CCC(N)(CO)CO)cc1 [fingolimod] (first compound 0.0001 µM, partner dose 2 µM) | 124 | 280 | 1420 | 80.3 | 105 | 104 | 61.9 | 134 | 99 | 137 | 141 | 98.3 | 41.2 | 136 | 111 | 92.1 | 296 | 98.9 | 263 | –
N#CC[C@H](C1CCCC1)n1cc(-c2ncnc3[nH]ccc23)cn1 [ruxolitinib] + CC(C)CCN1c2nc(Nc3cc(F)c(O)c(F)c3)ncc2N(C)C(=O)C1C [BID1870] (first compound 1 µM, partner dose 0.2 µM) | 85.6 | 33.8 | 175 | 77.6 | 223 | 130 | 195 | 145 | 50.2 | 166 | 127 | 135 | 101 | 106 | 104 | 438 | – | – | – | –
Cc1ccc(Nc2nccc(N(C)c3ccc4c(C)n(C)nc4c3)n2)cc1S(N)(=O)=O [Pazopanib] + COc1ccc(COc2ccc(Cc3cnc(N)nc3N)cc2OC)cc1 [GW2580] (first compound 0.4 µM, partner dose 1 µM) | 74.6 | 19.2 | 78.9 | 18.3 | 259 | 87.8 | 93.5 | 219 | 172 | 61.6 | 121 | 101 | 121 | 72 | 125 | 56 | – | – | – | –
Cc1cn(-c2cc(NC(=O)c3ccc(C)c(Nc4nccc(-c5cccnc5)n4)c3)cc(C(F)(F)F)c2)cn1 [nilotinib] + NCC(=O)Nc1ccc(-n2nc(C(F)(F)F)cc2-c2ccc3c(ccc4ccccc43)c2)cc1 [OSU03012] (first compound 0.2 µM, partner dose 1 µM) | 504 | 395 | 207 | 108 | – | 90.1 | 310 | 119 | 192 | 146 | 89.7 | 181 | 101 | 110 | 93.4 | 76.6 | 3840 | – | 99.5 | 140
COc1cc([C@@H]2c3cc4c(cc3[C@@H](O[C@@H]3O[C@@H]5CO[C@@H](C)O[C@H]5[C@H](O)[C@H]3O)[C@H]3COC(=O)[C@H]23)OCO4)cc(OC)c1O [etoposide] + CN(c1ncccc1CNc1nc(Nc2ccc3c(c2)CC(=O)N3)ncc1C(F)(F)F)S(C)(=O)=O [PF562271] (first compound 0.02 µM, partner dose 0.08 µM) | 89.6 | 47.7 | 173 | 78.9 | 119 | 102 | 138 | 95.4 | 129 | 115 | 97.4 | 124 | 30.4 | 93.1 | 57.4 | – | 134 | 131 | 174 | –
CC[C@]1(O)C[C@H]2CN(CCc3c([nH]c4ccccc34)[C@@](C(=O)OC)(c3cc4c(cc3OC)N(C=O)[C@H]3[C@@](O)(C(=O)OC)[C@H](OC(C)=O)[C@]5(CC)C=CCN6CC[C@]43[C@@H]65)C2)C1 [vincristine] + CCCS(=O)(=O)Nc1ccc(F)c(C(=O)c2c[nH]c3ncc(Cl)cc23)c1F [PLX4720] (first compound 0.0001 µM, partner dose 0.08 µM) | 114 | 214 | 456 | 97.2 | 185 | 103 | 206 | 231 | 89.1 | 110 | 53.9 | 192 | 46.2 | 120 | 335 | 270 | 255 | 59.2 | 65 | –
O=C(/C=C/c1cccnc1)NCCCCC1CCN(C(=O)c2ccccc2)CC1 + COc1cc(N2CCC(N3CCN(C)CC3)CC2)ccc1Nc1ncc(Cl)c(Nc2ccccc2S(=O)(=O)C(C)C)n1 [NVP-TAE684] (first compound 0.01 µM, partner dose 0.08 µM) | 73.5 | 34 | 42.2 | 110 | 3440 | 110 | 245 | 329 | 409 | 589 | 486 | 3420 | 328 | 70.7 | 317 | 43 | – | – | – | –
Cc1ccc(Nc2nccc(N(C)c3ccc4c(C)n(C)nc4c3)n2)cc1S(N)(=O)=O [Pazopanib] + Cc1cc([N+](=O)[O-])ccc1NS(=O)(=O)c1cc(Cl)ccc1Cl [FH535] (first compound 0.4 µM, partner dose 1 µM) | 144 | 34.2 | 22.5 | 141 | 570 | 122 | 1120 | 142 | 88.3 | 77.9 | 76.1 | 130 | 126 | 120 | 86.1 | 138 | – | – | – | –
Cc1ccc(Nc2nccc(N(C)c3ccc4c(C)n(C)nc4c3)n2)cc1S(N)(=O)=O [Pazopanib] + CCN(CC)CCCCNc1ncc2cc(-c3cc(OC)cc(OC)c3)c(NC(=O)NC(C)(C)C)nc2n1 [PD173074] (first compound 0.4 µM, partner dose 0.1 µM) | 70.1 | 23.7 | 49.7 | 145 | 129 | 119 | 57.7 | 141 | 155 | 77.3 | 78.2 | 112 | 112 | 232 | 61.2 | 117 | – | – | – | –
O=C(/C=C/c1cccnc1)NCCCCC1CCN(C(=O)c2ccccc2)CC1 + Oc1cc(-c2nc(-c3ccccc3)[nH]c2-c2ccncc2)ccc1Cl [L779450] (first compound 0.01 µM, partner dose 0.2 µM) | 96.8 | 16.9 | 42.6 | 92.9 | 5050 | 112 | 502 | 634 | 421 | 290 | 139 | 1220 | 318 | 184 | 376 | 42.1 | – | – | – | –

A run of entries from further up, for reference:
Compound | cleaved PARP positive nuclei fraction (501Mel) [%] | cleaved PARP positive nuclei fraction (A101D) [%] | cleaved PARP positive nuclei fraction (A2058) [%] | cleaved PARP positive nuclei fraction (C32) [%] | cleaved PARP positive nuclei fraction (CBRC008) [%] | cleaved PARP positive nuclei fraction (CBRC014) [%] | cleaved PARP positive nuclei fraction (CBRC016) [%] | cleaved PARP positive nuclei fraction (CBRC017) [%] | cleaved PARP positive nuclei fraction (COLO792) [%] | cleaved PARP positive nuclei fraction (COLO800) [%] | cleaved PARP positive nuclei fraction (COLO829) [%] | cleaved PARP positive nuclei fraction (G361) [%] | cleaved PARP positive nuclei fraction (IPC-298) [%] | cleaved PARP positive nuclei fraction (IST-MEL1) [%] | cleaved PARP positive nuclei fraction (LB2518-MEL) [%] | cleaved PARP positive nuclei fraction (LOXIMVI) [%] | cleaved PARP positive nuclei fraction (A375) [%] | cleaved PARP positive nuclei fraction (CBRC034) [%] | cleaved PARP positive nuclei fraction (MEL-HO) [%] | cleaved PARP positive nuclei fraction (CBRC013) [%]
Cc1ccc(Nc2nccc(N(C)c3ccc4c(C)n(C)nc4c3)n2)cc1S(N)(=O)=O [Pazopanib] + Cc1cc([N+](=O)[O-])ccc1NS(=O)(=O)c1cc(Cl)ccc1Cl [FH535] (first compound 0.4 µM, partner dose 1 µM) | 144 | 34.2 | 22.5 | 141 | 570 | 122 | 1120 | 142 | 88.3 | 77.9 | 76.1 | 130 | 126 | 120 | 86.1 | 138 | – | – | – | –
Cc1ccc(Nc2nccc(N(C)c3ccc4c(C)n(C)nc4c3)n2)cc1S(N)(=O)=O [Pazopanib] + CCN(CC)CCCCNc1ncc2cc(-c3cc(OC)cc(OC)c3)c(NC(=O)NC(C)(C)C)nc2n1 [PD173074] (first compound 0.4 µM, partner dose 0.1 µM) | 70.1 | 23.7 | 49.7 | 145 | 129 | 119 | 57.7 | 141 | 155 | 77.3 | 78.2 | 112 | 112 | 232 | 61.2 | 117 | – | – | – | –
O=C(/C=C/c1cccnc1)NCCCCC1CCN(C(=O)c2ccccc2)CC1 + Oc1cc(-c2nc(-c3ccccc3)[nH]c2-c2ccncc2)ccc1Cl [L779450] (first compound 0.01 µM, partner dose 0.2 µM) | 96.8 | 16.9 | 42.6 | 92.9 | 5050 | 112 | 502 | 634 | 421 | 290 | 139 | 1220 | 318 | 184 | 376 | 42.1 | – | – | – | –
